Reference: PubChem BioAssay AID504467 (National Center for Advancing Translational Sciences (NCATS), 2011)
Out of some 330,000 compounds screened, about 7,700 (2.3%) were called active. Inconclusive results, whose numbers are uncertain, are shown with a selection of clear calls. The call rests on the fitted dose curve; in most records, active means well fitted inhibition curve with a large enough effect; inconclusive means small, poorly fitted or top-dose-only effect, or effect the other way; inactive means flat fitted curve, though single readings scatter. Where the call is inconclusive, the potency comes from a doubtful curve fit.

Test: qHTS screen for small molecules that inhibit ELG1-dependent DNA repair in human embryonic kidney (HEK293T) cells expressing luciferase-tagged ELG1; further: nearly all actives have a fitted effect of over 55% in size
Conditions: HEK293T ELG1-luciferase reporter, luminescence, 16 h, DNA damage induced by 5-fluorouridine; activity change, negative = inhibition: at 46.1 µM (top of the series)
In short: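 Overnight (16 hr) co-exposure of 2,000 cells/well to 5-fluorouridine and compound at 37 °C preceded detection. Luciferase was quantified via ONE-Glo luminescence; loss of signal denotes inhibition.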
On the % scale 0 is the no-effect control and ±100 the full control effect; potency means the concentration at half of the fitted maximal effect.

Compound	Potency	activity change, negative = inhibition
S=C(Nc1ccc(OCc2ccccc2)cc1)Nc1cccc(Cl)c1Cl	inconclusive: 14.6 µM [activator, partial curve, poor fit]	–
Cc1ccc(N(CC(=O)Nc2ccc(Br)c(C)c2)S(=O)(=O)c2c(C)[nH]c(=O)[nH]c2=O)cc1	–	inactive: 7.22%
CCOc1ccc(CN(C)CC(=O)Nc2cccc3ccccc23)cc1OC	inconclusive: 25.9 µM [inhibitor, single point]	–
CCCS(=O)(=O)N1CCC(CCOc2ccccc2)(C(=O)OCC)CC1	inconclusive: 18.3 µM [inhibitor, single point]	–
O=C(OCC1CC(c2ccccn2)=NO1)c1ccc(Br)cc1 (stereo not given)	inconclusive: 29.1 µM [activator, partial curve, poor fit]	–
CCCN(CC(=O)Nc1ccccc1OC)C(=O)c1nc2nc(C)ccn2n1	–	inactive: -13.7%
COc1cc(CNCCN2CCOCC2)ccc1OCc1ccccc1Cl	–	inactive: -10.8%
CCOC(=O)c1nc(C)nc(Sc2n[nH]c(-c3ccc(C(C)(C)C)cc3)n2)c1C	inconclusive: 4.11 µM [activator, partial curve]	–
Cc1ccc(-c2noc(CCC(=O)NCCN3CCN(Cc4ccccc4)CC3)n2)cc1	inconclusive: 12.6 µM [inhibitor, partial curve, poor fit]	–
CCc1ccc(NC(=O)CSc2nc(N)c(NC(=O)c3ccc(F)c(F)c3)c(=O)[nH]2)cc1	–	inactive: -2.33%
Cc1ccc(C(=O)NC(=S)Nc2ccc(CN3CCCCC3)cc2)c(C)c1	–	inactive: -7.47%
O=c1[nH]c(-c2ccccc2)nc2sc(-c3ccccc3)cc12	inconclusive: 2.06 µM [activator, full curve, poor fit]	–
CCOc1ccc(CN(C)C(=O)[C@H](C)NC(=O)c2ccco2)cc1OC	–	inactive: -4.01%
Cc1ccc(N2CC(C(=O)NCCN3CCOCC3)CC2=O)cc1C (stereo not given)	inconclusive: 32.6 µM [activator, partial curve, poor fit]	–
O=C(Nc1ccccc1)c1ccc2c(c1)OCCO2	inconclusive: 4.11 µM [activator, partial curve]	–
N#C/C(=C(/O)c1ccc([N+](=O)[O-])o1)c1nc2ccccc2[nH]1	inconclusive: 9.2 µM [inhibitor, partial curve]	–
CC1CCN(CC(=O)Nc2nc(-c3ccccc3)cs2)CC1	–	inactive: -6.27%
COc1ccc(N=Nc2ccc3ccccc3c2)c(O)c1	inconclusive: 1.46 µM [activator, full curve]	–
Cc1ccc(NC(=O)Nc2ccno2)cc1	–	inactive: 1.01%
COc1ccc(-n2c(C)cc(C(=O)CN3CCCCC3)c2C)cc1	inconclusive: 20.6 µM [inhibitor, single point]	–
Cc1ccnc(NC(=O)CNC(=O)C23CC4CC(CC(C4)C2)C3)c1	inconclusive: 4.61 µM [activator, single point]	–
Nc1ncccc1OCc1cccc(C(F)(F)F)c1	inconclusive: 0.231 µM [inhibitor, single point]	–
CCOC(=O)C1CCCN(S(=O)(=O)c2cc(OCC(=O)NC3CCCCC3)c(C)cc2Cl)C1 (stereo not given)	active: 20.6 µM	–
CCc1ccc(CNc2ccc3c(c2)ncn3C)cc1	inconclusive: 14.6 µM [activator, partial curve]	–

Compound	Potency	activity change, negative = inhibition
Cc1cc(NC(=O)CN2CCCC(C)C2)no1 (stereo not given)	inconclusive: 18.3 µM [activator, partial curve]	–
O=C(CCC1CCCN(C(=O)Cc2ccc(F)cc2)C1)N1CCN(c2ccccn2)CC1 (stereo not given)	inconclusive: 29.1 µM [inhibitor, single point]	–
CCC1(c2cccc(Cl)c2)NC(=O)N(Cc2cc(C(=O)OC)c(C)o2)C1=O (stereo not given)	inconclusive: 29.1 µM [inhibitor, single point]	–
COc1ccc(CN(C)CC(=O)Nc2cccc(S(=O)(=O)N(C)c3ccccc3)c2)c(OC)c1	inconclusive: 18.3 µM [inhibitor, single point]	–
CCc1nc(Nc2ccncc2)c2oc3ccccc3c2n1	inconclusive: 14.1 µM [inhibitor, partial curve, poor fit]	–
COc1ccc(COC(=O)c2ccc3c(=O)n4c(nc3c2)CCC4)cc1F	–	inactive: -0.326%
COc1ccc(-n2c(CN3CCN(c4ccc(F)cc4)CC3)nc3ccc([N+](=O)[O-])cc3c2=O)c(OC)c1	inconclusive: 23.1 µM [inhibitor, single point]	–
O=C(C1CCCN(S(=O)(=O)c2cccc3cccnc23)C1)N1CCc2ccccc21 (stereo not given)	inconclusive: 29.1 µM [inhibitor, single point]	–
COc1ccc(NC(=O)C2=CC(c3ccc(OC)c(OC)c3)=NS(=O)(=O)N2C)cc1	inconclusive: 18.3 µM [inhibitor, single point]	–
O=C1c2cccc3c(O)ccc(c23)C(=O)N1Cc1ccccc1	inconclusive: 23.1 µM [inhibitor, partial curve, poor fit]	–
CCn1cc(CNC(=O)CCSc2nc(-c3ccco3)cc(C(F)(F)F)n2)cn1	inconclusive: 29.1 µM [inhibitor, single point]	–
CC1(c2ccc(OC(F)F)cc2)NC(=O)N(CC(=O)N2CCN(C(=O)c3ccco3)CC2)C1=O (stereo not given)	–	inactive: 15.5%
O=C(NCCS(=O)(=O)N1CCN(c2ccccc2F)CC1)c1ccc(Br)o1	–	inactive: -0.534%
Cc1cccn2c(=O)c3cc(C(=O)NCCc4ccccc4)c(=N)n(CCCn4ccnc4)c3nc12	inconclusive: 20.6 µM [inhibitor, partial curve, poor fit]	–
CCCC(C)NC(=S)Nc1cc(C)cc(C)c1 (stereo not given)	–	inactive: -17.6%
CC(C)CN(C(=O)COC(=O)/C=C/c1ccccc1)C1CCS(=O)(=O)C1 (stereo not given)	–	inactive: 9%
CCC(C)[C@H](NC(=O)Nc1cccc(Br)c1)C(=O)OC (stereo not given in full)	inconclusive: 18.4 µM [activator, partial curve, poor fit]	–
O=C(CSc1ccc2nnc(CCNC(=O)c3ccccc3)n2n1)Nc1ccccc1F	–	inactive: 14.5%
C=CCNc1nc(C(=O)OCC(=O)c2ccc(F)cc2)cs1	inconclusive: 25.9 µM [activator, single point]	–
C(=N\n1cnnc1)/c1cccc(OCCOc2ccccc2)c1	inconclusive: 3.26 µM [activator, single point]	–
CCn1c(SCC(=O)NCC2CCCO2)nnc1-c1c[nH]c2ccccc12 (stereo not given)	inconclusive: 1.16 µM [activator, single point]	–
CCCC(c1nnnn1Cc1ccco1)N1CCN(c2cc(Cl)ccc2C)CC1 (stereo not given)	–	inactive: -0.249%
Cc1ccccc1-c1cnn(-c2cccc([N+](=O)[O-])c2)c1N	inconclusive: 18.3 µM [inhibitor, single point]	–
Cc1cc2ncc(-c3cccc(Cl)c3)cn2n1	inconclusive: 18.3 µM [activator, partial curve, poor fit]	–

Compound	Potency	activity change, negative = inhibition
CCCCOc1ccc(C2OC34CCCCC3C(C#N)(C#N)C2(C#N)C(=N)O4)cc1 (stereo not given)	–	inactive: 11.4%
Cc1ccccc1NC(=S)N1CCN(c2ccccc2)CC1	–	inactive: -2.25%
CC(C)CC(NC(=O)C(CC(C)C)NC(=O)OC(C)(C)C)C(=O)O (stereo not given)	inconclusive: 29.1 µM [inhibitor, single point]	–
O=c1[nH]c2ccccc2nc1CCc1ccccc1	inconclusive: 8.2 µM [activator, partial curve]	–
Cn1cccc1/C=C1\SC(=Nc2ccccc2)NC1=O	inconclusive: 23.1 µM [activator, partial curve]	–
Cc1ccc(N(C(=O)CNC(=O)c2ccco2)C(C(=O)NC2CCCCC2)c2cccnc2)cc1 (stereo not given)	–	inactive: 24.5%
Cc1cccc(C(=O)OCC(=O)Nc2nnc(-c3ccccc3)o2)c1O	–	inactive: -3.22%
CC(C)NC(=O)CCn1nc(-c2ccc(Cl)cc2)c2ccccc2c1=O	inconclusive: 10.3 µM [inhibitor, partial curve, poor fit]	–
Cc1ccc(Nc2nc(N)nc(CN3CCN(C)CC3)n2)cc1C	–	inactive: 12.4%
Cc1ccsc1/C=C1\CCC(C2CCCC2)C1=O (stereo not given)	inconclusive: 5.8 µM [activator, partial curve]	–
COc1ccc(C(=O)CN(CCC(=O)O)S(=O)(=O)c2ccc([N+](=O)[O-])cc2)cc1	–	inactive: 3.49%
CCn1cc(CN2CCN(CCc3ccccc3)C(CCO)C2)c(C)n1 (stereo not given)	–	inactive: 2.15%
Cc1ccc(N=Cc2cc(Cc3ccccc3Cl)cc([N+](=O)[O-])c2O)c(O)c1	inconclusive: 0.517 µM [activator, single point]	–
O=C(CCN1C(=O)/C(=C/c2ccc(Cl)cc2)SC1=S)Nc1cccnc1	–	inactive: 6.59%
CCCCOc1ccc(CN(CCO)CCO)cc1[N+](=O)[O-]	inconclusive: 20.6 µM [activator, partial curve]	–
O=S(=O)(c1cnc(Cl)c(Br)c1)N1CCN(c2ncccn2)CC1	inconclusive: 25.9 µM [inhibitor, single point]	–
COc1cccc(/C=C/C(=O)c2ccc(NC3=NCCCS3)cc2)c1	inconclusive: 18.3 µM [activator, single point]	–
COc1ccc(-c2nnc(SCC(=O)Nc3cc(C)on3)o2)cc1	inconclusive: 18.3 µM [activator, partial curve]	–
Cc1cccc(NC(=O)c2cc(S(=O)(=O)NCc3ccco3)ccc2F)c1C	inconclusive: 16.4 µM [inhibitor, partial curve, poor fit]	–
Nc1nonc1-n1nnc(C(=O)N/N=C/c2cccs2)c1-c1ccc2c(c1)OCO2	–	inactive: 3.65%
Cc1ccc(NC(=O)CSCC(=O)N=c2sccn2C)cc1	inconclusive: 25.9 µM [activator, single point]	–
CCc1cccc(NS(=O)(=O)c2ccc(-n3cccn3)cc2)c1	–	inactive: -2.52%

21 entries from above in another layout:
Compound | Potency | activity change, negative = inhibition
Cc1ccccc1-c1cnn(-c2cccc([N+](=O)[O-])c2)c1N | inconclusive: 18.3 µM [inhibitor, single point] | –
Cc1cc2ncc(-c3cccc(Cl)c3)cn2n1 | inconclusive: 18.3 µM [activator, partial curve, poor fit] | –
CCCCOc1ccc(C2OC34CCCCC3C(C#N)(C#N)C2(C#N)C(=N)O4)cc1 (stereo not given) | – | inactive: 11.4%
CC(C)CC(NC(=O)C(CC(C)C)NC(=O)OC(C)(C)C)C(=O)O (stereo not given) | inconclusive: 29.1 µM [inhibitor, single point] | –
O=c1[nH]c2ccccc2nc1CCc1ccccc1 | inconclusive: 8.2 µM [activator, partial curve] | –
Cn1cccc1/C=C1\SC(=Nc2ccccc2)NC1=O | inconclusive: 23.1 µM [activator, partial curve] | –
Cc1ccc(N(C(=O)CNC(=O)c2ccco2)C(C(=O)NC2CCCCC2)c2cccnc2)cc1 (stereo not given) | – | inactive: 24.5%
Cc1cccc(C(=O)OCC(=O)Nc2nnc(-c3ccccc3)o2)c1O | – | inactive: -3.22%
CC(C)NC(=O)CCn1nc(-c2ccc(Cl)cc2)c2ccccc2c1=O | inconclusive: 10.3 µM [inhibitor, partial curve, poor fit] | –
Cc1ccc(Nc2nc(N)nc(CN3CCN(C)CC3)n2)cc1C | – | inactive: 12.4%
Cc1ccsc1/C=C1\CCC(C2CCCC2)C1=O (stereo not given) | inconclusive: 5.8 µM [activator, partial curve] | –
COc1ccc(C(=O)CN(CCC(=O)O)S(=O)(=O)c2ccc([N+](=O)[O-])cc2)cc1 | – | inactive: 3.49%
O=C(CCN1C(=O)/C(=C/c2ccc(Cl)cc2)SC1=S)Nc1cccnc1 | – | inactive: 6.59%
CCCCOc1ccc(CN(CCO)CCO)cc1[N+](=O)[O-] | inconclusive: 20.6 µM [activator, partial curve] | –
O=S(=O)(c1cnc(Cl)c(Br)c1)N1CCN(c2ncccn2)CC1 | inconclusive: 25.9 µM [inhibitor, single point] | –
COc1cccc(/C=C/C(=O)c2ccc(NC3=NCCCS3)cc2)c1 | inconclusive: 18.3 µM [activator, single point] | –
COc1ccc(-c2nnc(SCC(=O)Nc3cc(C)on3)o2)cc1 | inconclusive: 18.3 µM [activator, partial curve] | –
Cc1cccc(NC(=O)c2cc(S(=O)(=O)NCc3ccco3)ccc2F)c1C | inconclusive: 16.4 µM [inhibitor, partial curve, poor fit] | –
Nc1nonc1-n1nnc(C(=O)N/N=C/c2cccs2)c1-c1ccc2c(c1)OCO2 | – | inactive: 3.65%
Cc1ccc(NC(=O)CSCC(=O)N=c2sccn2C)cc1 | inconclusive: 25.9 µM [activator, single point] | –
CCc1cccc(NS(=O)(=O)c2ccc(-n3cccn3)cc2)c1 | – | inactive: -2.52%
